The supplement of paper PMC4604168 (melanoma cell lines)
Some of the results follow. Repeats are few or missing, and single values can be far off.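 Imaging used 1,536-well plates; nuclei positive for cleaved PARP by antibody were divided by total DNA-stained nuclei to yield the apoptosis fraction. Doses for screening kept most cells viable, and cell lines differ markedly in resting and induced cleaved-PARP levels.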

Tests used:
Experiment in all cases: cleaved PARP positive nuclei fraction relative to DMSO control; melanoma cells; higher = more apoptosis
Conditions in all cases: library dose: low library concentration; 72 h
501Mel = tested on: 501Mel
A101D = tested on: A101D
A2058 = tested on: A2058
A375 = tested on: A375
C32 = tested on: C32
CBRC013 = tested on: CBRC013 (line from a melanoma biopsy)
CBRC014 = tested on: CBRC014 (line from a melanoma biopsy)
CBRC016 = tested on: CBRC016 (line from a melanoma biopsy)
CBRC017 = tested on: CBRC017 (line from a melanoma biopsy)
CBRC034 = tested on: CBRC034 (line from a melanoma biopsy)
COLO792 = tested on: COLO792
COLO800 = tested on: COLO800
COLO829 = tested on: COLO829
G361 = tested on: G361
IPC-298 = tested on: IPC-298
IST-MEL1 = tested on: IST-MEL1
LB2518-MEL = tested on: LB2518-MEL
LOXIMVI = tested on: LOXIMVI

SMILES | cleaved PARP positive nuclei fraction (501Mel) [%] | cleaved PARP positive nuclei fraction (A101D) [%] | cleaved PARP positive nuclei fraction (A2058) [%] | cleaved PARP positive nuclei fraction (A375) [%] | cleaved PARP positive nuclei fraction (C32) [%] | cleaved PARP positive nuclei fraction (CBRC013) [%] | cleaved PARP positive nuclei fraction (CBRC014) [%] | cleaved PARP positive nuclei fraction (CBRC016) [%] | cleaved PARP positive nuclei fraction (CBRC017) [%] | cleaved PARP positive nuclei fraction (CBRC034) [%] | cleaved PARP positive nuclei fraction (COLO792) [%] | cleaved PARP positive nuclei fraction (COLO800) [%] | cleaved PARP positive nuclei fraction (COLO829) [%] | cleaved PARP positive nuclei fraction (G361) [%] | cleaved PARP positive nuclei fraction (IPC-298) [%] | cleaved PARP positive nuclei fraction (IST-MEL1) [%] | cleaved PARP positive nuclei fraction (LB2518-MEL) [%] | cleaved PARP positive nuclei fraction (LOXIMVI) [%]
Cn1nnc2c(C(N)=O)ncn2c1=O [temozolomide] + COc1ccc2c(c1)CCC1C2CCC2(C)C(NCCCCCCN3C(=O)C=CC3=O)CCC12 [U73122] (first compound 2 µM, partner dose 0.4 µM) | 167 | 106 | 213 | 286 | 192 | 102 | 115 | 92.9 | 148 | 44.3 | 96.4 | 81.6 | 175 | 57.4 | 90.2 | 64 | 88.9 | 73.2
Cc1nc(Nc2ncc(C(=O)Nc3c(C)cccc3Cl)s2)cc(N2CCN(CCO)CC2)n1 [dasatanib] + COc1ccc(COc2ccc(Cc3cnc(N)nc3N)cc2OC)cc1 [GW2580] (first compound 0.004 µM, partner dose 1 µM) | 83.2 | 66.6 | 200 | 246 | 62.1 | 105 | 116 | 34.6 | 78.7 | 136 | 310 | 209 | 115 | 22.9 | 160 | 64 | 96.2 | 49.2
C=CCn1c(=O)c2cnc(Nc3ccc(N4CCN(C)CC4)cc3)nc2n1-c1cccc(C(C)(C)O)n1 + O=S(=O)(c1ccccc1)N(CC(F)(F)F)c1ccc(C(O)(C(F)(F)F)C(F)(F)F)cc1 [T0901317] (first compound 0.02 µM, partner dose 1.4 µM) | 108 | 75.9 | 127 | 178 | 69.2 | 159 | 92.2 | 22.2 | 101 | 60.3 | 32.7 | 90.3 | 34.1 | 113 | 48 | 28.7 | 85.2 | 167
Cc1cc(N2CCOCC2)cc2[nH]c(-c3c(NC[C@@H](O)c4cccc(Cl)c4)cc[nH]c3=O)nc12 + CCN(CC)CCCCNc1ncc2cc(-c3cc(OC)cc(OC)c3)c(NC(=O)NC(C)(C)C)nc2n1 [PD173074] (first compound 0.2 µM, partner dose 0.1 µM) | 282 | 113 | 158 | 127 | 157 | 77.9 | 92.3 | 80.7 | 84.2 | 96.6 | 219 | 223 | 81.9 | 139 | 27.1 | 118 | 59.3 | 109
C[C@]1(c2nc3c(C(N)=O)cccc3[nH]2)CCCN1 [Veliparib] + COc1ccc2c(c1)CCC1C2CCC2(C)C(NCCCCCCN3C(=O)C=CC3=O)CCC12 [U73122] (first compound 1.4 µM, partner dose 0.4 µM) | 137 | 185 | 99.8 | 305 | 137 | 49.3 | 104 | 109 | 96.6 | 71.2 | 70.8 | 114 | 83.9 | 65.4 | 159 | 446 | 83.1 | 44.5
C[C@@H]1CCN(C(=O)CC#N)C[C@@H]1N(C)c1ncnc2[nH]ccc12 + COc1cc2ncnc(Nc3ccc(Oc4ccccc4)cc3)c2cc1OC [SrcI1] (first compound 1 µM, partner dose 2 µM) | 32.7 | 195 | 134 | 79.8 | 65.2 | 66 | 113 | 99 | 101 | 42.2 | 93.4 | 79.3 | 73.8 | 47.9 | 84 | 33.6 | 78.9 | 76.2
Cc1nc(Nc2ncc(C(=O)Nc3c(C)cccc3Cl)s2)cc(N2CCN(CCO)CC2)n1 [dasatanib] + CCCCCCCCCCCC1=C(O)C(=O)C=C(O)C1=O [Embelin] (first compound 0.004 µM, partner dose 1.2 µM) | 71.4 | 192 | 122 | 111 | 136 | 416 | 107 | 93.2 | 77.6 | 407 | 123 | 121 | 92.2 | 84 | 41.2 | 96.4 | 171 | 118
COc1cc(Nc2ncc(F)c(Nc3ccc4c(n3)NC(=O)C(C)(C)O4)n2)cc(OC)c1OC [Tamatinib] + N#Cc1c(O)c2c(-c3ccc(-c4ccccc4O)cc3)csc2[nH]c1=O [A769662] (first compound 0.4 µM, partner dose 2 µM) | 78.6 | 62.7 | 189 | 159 | 103 | 128 | 105 | 56.7 | 163 | 98.2 | 239 | 126 | 62.2 | 71.5 | 52.4 | 121 | 188 | 137
C#Cc1cccc(Nc2ncnc3cc(OCCOC)c(OCCOC)cc23)c1 [erlotinib] + COc1cc2ncnc(Nc3ccc(Oc4ccccc4)cc3)c2cc1OC [SrcI1] (first compound 0.8 µM, partner dose 2 µM) | 176 | 189 | 64.6 | 152 | 96.9 | 111 | 92.8 | 39.3 | 88.2 | 78.4 | 75.5 | 152 | 161 | 137 | 99.1 | 40.9 | 73.6 | 124
C=CCn1c(=O)c2cnc(Nc3ccc(N4CCN(C)CC4)cc3)nc2n1-c1cccc(C(C)(C)O)n1 + COc1cc(N2CCC(N3CCN(C)CC3)CC2)ccc1Nc1ncc(Cl)c(Nc2ccccc2S(=O)(=O)C(C)C)n1 [NVP-TAE684] (first compound 0.02 µM, partner dose 0.08 µM) | 79 | 152 | 116 | 326 | 156 | 134 | 118 | 85.3 | 92.4 | 82.5 | 116 | 277 | 135 | 70.8 | 57.9 | 115 | 104 | 30.2
CO[C@@H]1[C@H](N(C)C(=O)c2ccccc2)C[C@H]2O[C@]1(C)n1c3ccccc3c3c4c(c5c6ccccc6n2c5c31)C(=O)NC4 [Midostaurin] + CCc1ccc(CCOc2ccc(CC3SC(=O)NC3=O)cc2)nc1 [pioglitazone] (first compound 0.08 µM, partner dose 2 µM) | 32.9 | 197 | 101 | 276 | 178 | 36.6 | 98 | 91.9 | 174 | 48.9 | 94.4 | 72.2 | 220 | 135 | 38.5 | 32.4 | 81.7 | 46.1
Cn1c(Nc2ccc(C(F)(F)F)cc2)nc2cc(Oc3ccnc(-c4ncc(C(F)(F)F)[nH]4)c3)ccc21 + COc1cc2ncnc(Nc3ccc(Oc4ccccc4)cc3)c2cc1OC [SrcI1] (first compound 0.08 µM, partner dose 2 µM) | 112 | 570 | 79.5 | 363 | 53 | 238 | 75.4 | 70.3 | 52.1 | 94 | 399 | 46.8 | 74.1 | 170 | 337 | 42.3 | 75.7 | 73.1
COCC[n+]1c2c(n(Cc3cnccn3)c1C)C(=O)c1ccccc1C2=O + CC(C)CCN1c2nc(Nc3cc(F)c(O)c(F)c3)ncc2N(C)C(=O)C1C [BID1870] (first compound 0.0004 µM, partner dose 0.2 µM) | 70.5 | 471 | 202 | 414 | 95.4 | 81.9 | 94.4 | 180 | 82.5 | 48.2 | 168 | 415 | 52.7 | 152 | 71.9 | 46 | 106 | 73.2
Cc1ccc(NC(=O)c2cccc(N(C)C)c2)cc1NC(=O)c1ccc(O)cc1 + N#Cc1c(O)c2c(-c3ccc(-c4ccccc4O)cc3)csc2[nH]c1=O [A769662] (first compound 2 µM, partner dose 2 µM) | 107 | 97.4 | 118 | 86.9 | 72.2 | 143 | 114 | 57.2 | 196 | 82.9 | 119 | 126 | 89.9 | 64.7 | 106 | 141 | 166 | 17
CO[C@@H]1[C@H](N(C)C(=O)c2ccccc2)C[C@H]2O[C@]1(C)n1c3ccccc3c3c4c(c5c6ccccc6n2c5c31)C(=O)NC4 [Midostaurin] + COc1ccc2c(c1)CCC1C2CCC2(C)C(NCCCCCCN3C(=O)C=CC3=O)CCC12 [U73122] (first compound 0.08 µM, partner dose 0.4 µM) | 90.9 | 94.3 | 103 | 55.4 | 112 | 96.3 | 108 | 96.4 | 88.3 | 57 | 95.9 | 37.4 | 154 | 233 | 79.9 | 45.7 | 72.9 | 123
COc1cc(Nc2ncc(F)c(Nc3ccc4c(n3)NC(=O)C(C)(C)O4)n2)cc(OC)c1OC [Tamatinib] + COc1cc(N2CCC(N3CCN(C)CC3)CC2)ccc1Nc1ncc(Cl)c(Nc2ccccc2S(=O)(=O)C(C)C)n1 [NVP-TAE684] (first compound 0.4 µM, partner dose 0.08 µM) | 97.5 | 198 | 293 | 183 | 198 | 47.2 | 93.2 | 55.2 | 63.5 | 132 | 245 | 97.1 | 161 | 122 | 243 | 30.2 | 333 | 36.3
Nc1cccc2c1CN(C1CCC(=O)NC1=O)C2=O (centres undefined) [lenalidomide] + COc1ccc2c(c1)CCC1C2CCC2(C)C(NCCCCCCN3C(=O)C=CC3=O)CCC12 [U73122] (first compound 1 µM, partner dose 0.4 µM) | 91.4 | 50.3 | 145 | 147 | 96.3 | 82.3 | 97.8 | 150 | 78.6 | 41.4 | 99.7 | 41.3 | 102 | 88.1 | 40.5 | 82.6 | 76.8 | 215
O=C(CCCCCCC(=O)Nc1ccccc1)NO [vorinostat] + N#Cc1c(O)c2c(-c3ccc(-c4ccccc4O)cc3)csc2[nH]c1=O [A769662] (first compound 0.08 µM, partner dose 2 µM) | 99.7 | 55.3 | 178 | 58.3 | 184 | 123 | 93.5 | 114 | 176 | 86.3 | 132 | 110 | 23.7 | 113 | 54 | 122 | 160 | 68.5

An excerpt from above, reduced to cleaved PARP positive nuclei fraction (A375) [%], cleaved PARP positive nuclei fraction (C32) [%] and cleaved PARP positive nuclei fraction (IPC-298) [%].
SMILES	cleaved PARP positive nuclei fraction (A375) [%]	cleaved PARP positive nuclei fraction (C32) [%]	cleaved PARP positive nuclei fraction (IPC-298) [%]
C[C@]1(c2nc3c(C(N)=O)cccc3[nH]2)CCCN1 [Veliparib] + COc1ccc2c(c1)CCC1C2CCC2(C)C(NCCCCCCN3C(=O)C=CC3=O)CCC12 [U73122] (first compound 1.4 µM, partner dose 0.4 µM)	305	137	159
C[C@@H]1CCN(C(=O)CC#N)C[C@@H]1N(C)c1ncnc2[nH]ccc12 + COc1cc2ncnc(Nc3ccc(Oc4ccccc4)cc3)c2cc1OC [SrcI1] (first compound 1 µM, partner dose 2 µM)	79.8	65.2	84
